Data published in patent US8759301B2, “Gene fusion targeted therapy” (The Regents of The University of Michigan, priority 2010, dated 2014).
Where two headings read alike, the source gives them in different places. This continues a long series; more values of the same kind are listed elsewhere.

Amino acid sequences for entries named in this document (tags omitted).
UniProt P10275, whole entry T878A: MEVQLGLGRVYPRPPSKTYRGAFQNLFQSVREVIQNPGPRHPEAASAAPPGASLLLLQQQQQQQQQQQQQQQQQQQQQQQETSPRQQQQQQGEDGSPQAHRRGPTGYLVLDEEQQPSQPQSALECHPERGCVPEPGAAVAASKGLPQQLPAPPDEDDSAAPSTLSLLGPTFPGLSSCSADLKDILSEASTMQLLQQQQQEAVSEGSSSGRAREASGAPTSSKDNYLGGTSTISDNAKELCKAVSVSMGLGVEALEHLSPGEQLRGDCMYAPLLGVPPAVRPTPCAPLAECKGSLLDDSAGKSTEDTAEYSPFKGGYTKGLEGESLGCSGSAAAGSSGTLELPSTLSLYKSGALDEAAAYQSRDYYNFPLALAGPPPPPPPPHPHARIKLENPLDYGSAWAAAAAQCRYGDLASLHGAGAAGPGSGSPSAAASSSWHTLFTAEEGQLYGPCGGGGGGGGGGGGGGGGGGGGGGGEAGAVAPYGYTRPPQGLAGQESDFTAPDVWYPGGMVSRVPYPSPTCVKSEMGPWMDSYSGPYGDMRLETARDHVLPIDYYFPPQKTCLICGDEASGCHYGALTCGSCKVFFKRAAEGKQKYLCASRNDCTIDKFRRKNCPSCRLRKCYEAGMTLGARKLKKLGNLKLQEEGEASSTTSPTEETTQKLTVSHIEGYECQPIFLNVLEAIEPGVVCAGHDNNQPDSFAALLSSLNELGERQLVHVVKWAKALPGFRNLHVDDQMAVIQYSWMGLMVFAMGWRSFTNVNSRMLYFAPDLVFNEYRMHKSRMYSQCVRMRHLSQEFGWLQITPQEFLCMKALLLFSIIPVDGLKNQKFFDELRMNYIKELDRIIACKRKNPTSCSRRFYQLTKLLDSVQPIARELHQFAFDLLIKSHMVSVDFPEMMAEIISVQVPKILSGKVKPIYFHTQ

Biological target: AR (Homo sapiens, UniProt P10275, T878A)
Conditions: LNCaP R1881-treated

Measured: number of AR binding sites

C[C@]1(O)CC[C@H]2[C@@H]3CCC4=CC(=O)CCC4=C3C=C[C@@]21C [R1881, methyltrienolone]
7: distance to TSS 178 kb | distance to TSS 190 kb
11: distance to TSS 145 kb | distance to TSS 176 kb | distance to TSS 180 kb | distance to TSS 184 kb | distance to TSS 185 kb | distance to TSS 194 kb
24: distance to TSS 109 kb | distance to TSS 128 kb | distance to TSS 135 kb
10: distance to TSS 167 kb | distance to TSS 175 kb | distance to TSS 179 kb | distance to TSS 183 kb | distance to TSS 193 kb | distance to TSS 196 kb
20: distance to TSS 120 kb | distance to TSS 122 kb | distance to TSS 129 kb | distance to TSS 140 kb | distance to TSS 142 kb
9: distance to TSS 161 kb | distance to TSS 189 kb | distance to TSS 195 kb
25: distance to TSS 136 kb | distance to TSS 137 kb
34: distance to TSS 107 kb
16: distance to TSS 126 kb | distance to TSS 143 kb | distance to TSS 144 kb | distance to TSS 159 kb | distance to TSS 160 kb | distance to TSS 162 kb | distance to TSS 172 kb | distance to TSS 186 kb
18: distance to TSS 110 kb | distance to TSS 141 kb
15: distance to TSS 125 kb | distance to TSS 151 kb | distance to TSS 165 kb | distance to TSS 166 kb | distance to TSS 169 kb | distance to TSS 177 kb | distance to TSS 198 kb
13: distance to TSS 149 kb | distance to TSS 156 kb | distance to TSS 157 kb | distance to TSS 174 kb
21: distance to TSS 119 kb | distance to TSS 121 kb | distance to TSS 123 kb
12: distance to TSS 153 kb | distance to TSS 182 kb | distance to TSS 188 kb
8: distance to TSS 168 kb | distance to TSS 197 kb | distance to TSS 199 kb
26: distance to TSS 108 kb | distance to TSS 113 kb | distance to TSS 154 kb
5: distance to TSS 164 kb
22: distance to TSS 118 kb | distance to TSS 127 kb | distance to TSS 134 kb | distance to TSS 139 kb | distance to TSS 147 kb
23: distance to TSS 112 kb | distance to TSS 114 kb | distance to TSS 130 kb | distance to TSS 131 kb
17: distance to TSS 132 kb | distance to TSS 146 kb | distance to TSS 173 kb
14: distance to TSS 133 kb | distance to TSS 148 kb | distance to TSS 152 kb | distance to TSS 163 kb | distance to TSS 170 kb | distance to TSS 171 kb | distance to TSS 181 kb | distance to TSS 191 kb
19: distance to TSS 117 kb | distance to TSS 138 kb | distance to TSS 150 kb | distance to TSS 155 kb | distance to TSS 158 kb | distance to TSS 187 kb | distance to TSS 192 kb
27: distance to TSS 111 kb | distance to TSS 116 kb
29: distance to TSS 115 kb | distance to TSS 124 kb
